Assay results reported in PubChem BioAssay AID1487 (National Center for Advancing Translational Sciences (NCATS), 2009).
This is one part of the list. Shown are side measurements of this screen, not its main read-out; they come without a call. Compounds called inactive in the main read-out are mostly missing here. Words in brackets tell the shape of the fitted curve; partial curves, single points and poor fits give uncertain potencies.

Assay: qHTS Assay for Modulators of Lamin A Splicing
Conditions: HeLa LMNA splicing GFP/RFP minigene ratio, 48 h
Summary of the method: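 S3 HeLa stable clones carrying a lamin A-EGFP splicing minigene plus DsRed2 were seeded at 600 cells/well in Opti-MEM with 2% FBS, pin-dosed and incubated 48 h at 37°C. Acumen cytometry (488 nm) gave the GFP/RFP total-intensity ratio.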

[1] = measured here: GFP splicing reporter channel
[2] = measured here: RFP viability control channel

| SMILES | AC50 [1] | AC50 [2] |
| --- | --- | --- |
| O=C(CSc1nc2c(sc3ccccc32)c(=O)n1-c1ccccc1)NCc1ccco1 | 35.5 µM [falling, single point] | 31.6 µM [falling, single point] |
| O=C(CSc1ncnc2scc(-c3ccccc3)c12)N1CCN(c2ccccc2F)CC1 | 15.8 µM [rising, single point] | 22.4 µM [rising, partial curve] |
| CC1Cc2ccccc2N1c1ncnc2nc[nH]c12 (stereo unspecified) | – | 35.5 µM [falling, single point] |
| CNc1ccccc1C(C)(C)c1cc(-c2ccc(F)cc2)no1 | – | 6.31 µM [rising, partial curve] |
| O=C(N/N=C/c1ccncc1)c1ccccc1OCc1ccc(Br)cc1 | 3.98 µM [rising, partial curve] | 11.2 µM [rising, partial curve] |
| Cc1ccc(NC(=O)CSc2nn(-c3ccc(Cl)cc3)c(=S)s2)cc1S(=O)(=O)N(C)C | – | 6.31 µM [rising, full curve] |
| CC(NC(=O)COc1ccccc1-c1ccccc1)c1ccccc1 (stereo unspecified) | – | 35.5 µM [rising, single point] |
| C=CCc1cc(OC)ccc1OCCOCCC(C(=O)OCC)C(=O)OCC | – | 0.0447 µM [falling, full curve, poor fit] |
| Cc1ccc(-c2nc(NC(=O)c3nn(C)cc3[N+](=O)[O-])sc2C)cc1C | 3.16 µM [falling, single point] | – |
| COc1ccc(OC)c(Nc2nc(-c3ccccc3O)nc3ccccc23)c1 | – | 39.8 µM [falling, partial curve, poor fit] |
| Cc1nnc(SCc2ccc(F)cc2)n1NC/C=C/c1ccccc1 | – | 20 µM [rising, single point] |
| Cc1ccc(S(=O)(=O)N2CCOC2CNC(=O)C(=O)NCCc2c[nH]c3ccccc23)cc1 (stereo unspecified) | – | 0.00316 µM [rising, full curve, poor fit] |
| COCc1cc(N2CCCC2)nc(-c2ccccc2)n1 | 0.00398 µM [falling, full curve, poor fit] | – |
| N#C/C(=C\c1c[nH]c2ccccc12)c1nnc2n1CCCCC2 | – | 3.55 µM [rising, partial curve] |
| Cc1ccc(S(=O)(=O)N(C)C)cc1NC(=O)COC(=O)CCC(=O)c1cccs1 | 0.282 µM [falling, full curve] | 0.126 µM [falling, full curve] |
| O=C1Nc2ccc(NS(=O)(=O)c3cccs3)c3cccc1c23 | – | 15.8 µM [rising, single point] |
| NC(=O)CC[C@@H](N)C(=O)O | 35.5 µM [falling, single point] | – |
| CCN(CC)S(=O)(=O)c1cccc(-c2nnc(SCC(=O)NCCC3=CCCCC3)n2N)c1 | 10 µM [rising, partial curve, poor fit] | – |
| Cc1cc(=O)[nH]c(SCC(=O)c2ccc(C(C)C)cc2)n1 | 17.8 µM [rising, single point] | 31.6 µM [rising, single point] |

Record cards, from the list above. Order of values: AC50 [1]	AC50 [2]
`CC1Cc2ccccc2N1c1ncnc2nc[nH]c12` (stereo unspecified) as listed: –	35.5 µM [falling, single point]
`CC(NC(=O)COc1ccccc1-c1ccccc1)c1ccccc1` (stereo unspecified) as listed: –	35.5 µM [rising, single point]
`Cc1cc(=O)[nH]c(SCC(=O)c2ccc(C(C)C)cc2)n1` as listed: 17.8 µM [rising, single point]	31.6 µM [rising, single point]

(further entries)

| SMILES | AC50 [1] | AC50 [2] |
| --- | --- | --- |
| Cc1ccc(NC(=S)NNC(=O)c2c(Cl)c(C)nn2C)cc1 | 35.5 µM [rising, single point] | 25.1 µM [rising, single point] |
| O=C(CS(=O)(=O)c1c[nH]c2ccccc12)N1CCCCCC1 | 5.62 µM [rising, single point] | – |
| CCCC(=O)OCCNc1cc(SCCC(=O)OC)c2nonc2c1[N+](=O)[O-] | – | 31.6 µM [rising, single point] |
| COc1ccccc1N1CCN(C(=O)c2c(-c3ccccc3)noc2C)CC1 | 1.78 µM [falling, single point] | 35.5 µM [rising, single point] |
| CC(C)C(=O)NC(c1ccco1)c1ccc2cccnc2c1O (stereo unspecified) | 6.31 µM [rising, partial curve] | 8.91 µM [rising, partial curve] |
| CC(=O)N1CCCc2cc(S(=O)(=O)N(C)CC(=O)Nc3ccc(F)cc3Cl)ccc21 | – | 0.251 µM [falling, full curve] |
| CCCCOC(=O)NS(=O)(=O)c1sc(CC(C)C)cc1-c1ccc(Cn2c(CC)nc3c(C)cc(C)nc32)cc1 | 20 µM [falling, partial curve] | 15.8 µM [falling, partial curve] |
| COc1ccccc1N1CCN(C(CNC(=O)c2ccco2)c2cccnc2)CC1 (stereo unspecified) | – | 10 µM [rising, partial curve] |
| CCOc1ccc(C(=O)Nc2ccc(N3CCN(C(C)=O)CC3)cc2)cc1[N+](=O)[O-] | 0.00501 µM [falling, full curve, poor fit] | – |
| C/C(CC(=O)Nc1ccc(Cl)c(C(F)(F)F)c1)=N\NC(=O)c1cc2ccccc2cc1O | – | 15.8 µM [rising, partial curve] |
| c1ccc2sc(NCC3CCCO3)nc2c1 (stereo unspecified) | 0.00891 µM [falling, full curve, poor fit] | – |
| Cc1ccc(NC(=O)c2c(Nc3ccccc3C)sc(C(=O)c3ccccc3)c2N)cc1 | – | 15.8 µM [rising, single point] |
| O=[N+]([O-])c1ccc(C[n+]2cccc3ccccc32)cc1 | 17.8 µM [rising, partial curve, poor fit] | – |
| O=C(Cc1ccc([N+](=O)[O-])cc1)Nc1cccc(C(F)(F)F)c1 | – | 3.16 µM [rising, partial curve, poor fit] |
| Cc1nnc(SCC(C)C)[nH]c1=O | – | 0.794 µM [falling, full curve] |
| CCCCCCCCn1c2c(c(=N)c3c1CCC3)CCCC2 | – | 25.1 µM [falling, single point] |
| Cc1cc(O)c(C(c2ccc(F)cc2)N2CCCCC2)c(=O)n1Cc1ccco1 (stereo unspecified) | 0.0224 µM [rising, full curve, poor fit] | – |
| CCc1ccc(-n2nc(C)c3c(C(=O)Nc4cccc(C(F)(F)F)c4)cc(C)nc32)cc1 | 35.5 µM [rising, single point] | 22.4 µM [rising, single point] |
| CCN(c1ccccc1)S(=O)(=O)c1ccc(NC(=O)c2ccco2)cc1 | 14.1 µM [rising, partial curve] | 20 µM [rising, partial curve] |

| SMILES | AC50 [1] | AC50 [2] |
| --- | --- | --- |
| COc1ccc(-c2csc(NC(=S)NC(=O)c3cccs3)n2)cc1OC | – | 0.0708 µM [rising, full curve, poor fit] |
| O=c1oc2ccccc2cc1-c1cn2ccccc2n1 | 31.6 µM [falling, single point] | 31.6 µM [falling, partial curve] |
| CCN(CC)c1ccc(CNc2nc3ccccc3n2CCN2CCCCC2)cc1 | – | 15.8 µM [rising, single point] |
| CCN(CC)c1ccc(/C=N/NC(=S)NCc2ccccc2)c(O)c1 | 11.2 µM [rising, partial curve, poor fit] | 20 µM [rising, partial curve] |
| Cn1c(=O)c(C(=O)COC(=O)c2cc(-c3ccco3)nc3ccccc23)c(N)n(Cc2ccccc2)c1=O | – | 17.8 µM [rising, single point] |
| CC(=O)NCCc1nc2cc(NC(=O)c3cccs3)ccc2n1C | – | 0.00316 µM [falling, full curve, poor fit] |
| Cc1cccc(NCC(=O)N/N=C\c2cccc(Oc3ccccc3)c2)c1 | – | 12.6 µM [rising, partial curve] |
| CCc1nc(SCC(=O)OC(C)C)c2ccccc2n1 | 0.708 µM [falling, single point] | 0.794 µM [falling, full curve, poor fit] |
| N#Cc1ccccc1Sc1ccccc1C(=O)Nc1ccc(Br)cc1 | – | 6.31 µM [falling, partial curve] |
| CCC(=O)NC(c1ccccc1OC)c1ccc2cccnc2c1O (stereo unspecified) | – | 35.5 µM [rising, single point] |
| O=C(NNC(=O)c1ccc([N+](=O)[O-])o1)c1ccccc1 | 35.5 µM [falling, single point] | 35.5 µM [falling, single point] |
| CCc1ccc(-c2nn(CC(=O)NC3CCCC3)c3c2cnc2ccc(C)cc23)cc1 | – | 2.51 µM [falling, partial curve, poor fit] |
| COc1ccc(-c2nc3n(n2)C(=O)CC(c2ccco2)S3)cc1 (stereo unspecified) | 35.5 µM [rising, single point] | 35.5 µM [rising, single point] |
| CCC(CC)C(=O)Nc1cccc(-c2nc3cccnc3s2)c1C | – | 17.8 µM [rising, single point] |
| Cc1nn(-c2ccccc2)c(Cl)c1/C=C1\SC(=S)NC1=O | – | 22.4 µM [rising, single point] |
| O=C(/C=C/c1cccs1)c1ccc(NC(=O)c2ccccc2F)cc1 | 14.1 µM [rising, single point] | 12.6 µM [rising, partial curve] |
| COc1cccc(CNC(=S)NC2CCCC2)c1 | – | 35.5 µM [rising, single point] |
| FC(F)(F)c1ccccc1-n1ccnc1 | 5.01 µM [rising, single point] | 22.4 µM [rising, partial curve, poor fit] |
| CCc1ccccc1NC(=O)CN(c1ccc(OC)cc1OC)S(=O)(=O)c1ccccc1[N+](=O)[O-] | 5.62 µM [falling, single point] | 8.91 µM [falling, partial curve] |
